Experimental data from EP2198878A1, “Polypeptide bombesin antagonists” (University Of Miami, priority 2008, dated 2010).
At least one peptide structure holds a part that was inferred or is arguable (an end, a ring closure or a residue). Marks after values point to notes of the source that are not given here. Peptide text beside a SMILES is read from it. * marks the point of attachment. Leuψ(CH2N)ThzNH2 = CC(C)C[C@@H](CN1CSC[C@H]1C(N)=O)N*; Hydrocinnamoyl = O=C(CCc1ccccc1)*

Test system: Human SK-Hep-1 cancers
Assay: SK-Hep-1 human hepatocellular carcinoma xenograft in nude mice
Assay type: in vivo, mouse
Experimental: Human SK-Hep-1 cancers were transplanted sc. into both flank areas of female nude mice. The treatment started 47 days after transplantation as follows: Group 1: Control; Group 2: Peptide 14, 20 µg/day;. There were 8 animals in each group. The substances were dissolved in 0.1% dimethyl sulfoxide (DMSO) and diluted with 10% propylene glycol in water. Amounts of 0.1 ml of the solutions were injected once daily sc. The controls received vehicle only. Tumors and body weights were measured weekly and tumor volume was calculated. The experiment was terminated on day 135.

In the case of CC(C)C[C@@H](CN1CSC[C@H]1C(N)=O)NC(=O)[C@H](Cc1c[nH]cn1)NC(=O)CNC(=O)[C@@H](NC(=O)[C@H](C)NC(=O)[C@H](Cc1c[nH]c2ccccc12)NC(=O)[C@H](CCC(N)=O)NC(=O)CCc1ccccc1)C(C)C [Peptide 14, Hca-Gln-Trp-Ala-Val-Gly-His-Leu-ψ-Tac-NH2] (Hydrocinnamoyl-QWAVGH-{Leuψ(CH2N)ThzNH2}), the “mean tumor volume compared with the initial value” (Group 2, 20 µg/day sc., from day 50 until the end of the experiment) is reported as “remained below the initial value”, the “decrease in tumor volume” value (after 35 days of treatment (so in the source), 20 µg/day sc., nude mice) is reported as 94% and the “Tumor volume (mm^3) on day 135” value (female nude mice, sc. tumors, 20 µg/day sc. once daily, mean ± SE) is reported as 47 ± 39* mm^3. For the same compound, the “Tumor weights” value (female nude mice, 20 µg/day sc. once daily, end of experiment (day 135), mean ± SE) was 160 ± 142 mg and the “Tumors with total regression” value (female nude mice, 20 µg/day sc., out of 10 tumors in the group) was 4.
